Measurements as given in patent publication US12145987B2, “Method for depleting cytotoxic T cells using an anti-LAG-3 antibody composition” (Daiichi Sankyo Company, Limited, priority 2017, dated 2024).
For at least one compound, name, drawing or mass did not settle the structure.

How the values were obtained:
Assay type in all cases: cell-based
T cells (total number) = assay: Total T cell number after CD3/CD28 stimulation of human PBMCs for 4 days, flow cytometry; conditions: hLA212_H4/L2 10 μg/mL, tacrolimus 10 nM, dexamethasone 1 μM, PBMCs of two donors
Protocol: (§1) PBMCs were separated from human peripheral blood by Ficoll centrifugation and added to a 96-well U-bottom microplate in an amount of 4×10^5 cells/well. Human IL-2 (PeproTech, Inc., final concentration: 100 ng/mL) and Dynabeads Human T-Activator CD3/CD28 (Life Technologies Corp., 4×105 beads/well) were added thereto, and T cells were activated by culture for 4 days. The obtained cells were recovered, suspended in a FACS buffer (PBS, 0.1% BSA, and 0.1% sodium azide), and then reacted with Human BD Fc Block (Becton, Dickinson and Company) at room temperature for 10 minutes. Subsequently, the cell surface was stained by reaction at 4° C. for 30 minutes with fluorescently labeled antibodies diluted with a FACS buffer containing a LIVE/DEAD Fixable Dead Cell Stain Kit-near-IR fluorescent reactive dye (manufactured by Invitrogen Corp.), followed by washing with a FACS buffer. […] The data was analyzed using FlowJo (manufactured by Tree Star Inc). After removal of the LIVE/DEAD Fixable Dead Cell Stain Kit-near-IR fluorescent reactive dye-positive dead cells by gating, only the living cells were analyzed by further gating CD3 positive and CD8 positive CD8 T cells. […]

[1] = test system: perforin positive CD8 T cells; assay: Perforin positive CD8 T cell number after CD3/CD28 stimulation of human PBMCs for 4 days, flow cytometry
Protocol: as §1

CD28 negative T cells = assay: CD28 negative T cell number after CD3/CD28 stimulation of human PBMCs for 4 days, flow cytometry; conditions: tacrolimus 10 nM, dexamethasone 1 μM, two donors
Protocol: (§2) PBMCs were separated from human peripheral blood by Ficoll centrifugation and added to a 96-well U-bottom microplate in an amount of 4×10^5 cells/well. Human IL-2 (PeproTech, Inc., final concentration: 100 ng/mL) and Dynabeads Human T-Activator CD3/CD28 (Life Technologies Corp., 4×105 beads/well) were added thereto, and T cells were activated by culture for 4 days. The obtained cells were recovered, suspended in a FACS buffer (PBS, 0.1% BSA, and 0.1% sodium azide), and then reacted with Human BD Fc Block (Becton, Dickinson and Company) at room temperature for 10 minutes. […] The data was analyzed using FlowJo (manufactured by Tree Star Inc). After removal of the LIVE/DEAD Fixable Dead Cell Stain Kit-near-IR fluorescent reactive dye-positive dead cells by gating, only the living cells were analyzed by further gating CD3 positive and CD8 positive CD8 T cells.
(§3) The effect of the humanized anti-human LAG-3 antibody hLA212_H4/L2, the calcineurin inhibitor tacrolimus, and the corticosteroid dexamethasone on CD28 negative T cells and CD57 positive T cells was investigated in the assay system of Example 13. […] Out of the living cells, a CD3 positive and CD8 negative fraction and a CD3 positive and CD8 positive fraction were analyzed as CD4 T cells and CD8 T cells, respectively.

CD57 positive T cells = assay: CD57 positive T cell number after CD3/CD28 stimulation of human PBMCs for 4 days, flow cytometry; conditions: tacrolimus 10 nM, dexamethasone 1 μM, two donors
Protocol: as §2, §3

[2] = hLA212_H4/L2 10, 1, 0.1 μg/mL (effect concentration dependent)

SMILES: C[C@@H]1C[C@H]2[C@@H]3CCC4=CC(=O)C=C[C@]4(C)[C@@]3(F)[C@@H](O)C[C@]2(C)[C@@]1(O)C(=O)CO [dexamethasone, reference compound]
- total number of T cells after culture, compared with the control (T cells (total number)): rarely different from those of the control
- number of perforin positive CD8 T cells, compared with the control, PBMC1 ([1]; donor PBMC1, dexamethasone 1 μM): increased
- number of perforin positive CD8 T cells, compared with the control, PBMC2 ([1]; donor PBMC2, dexamethasone 1 μM): at the same level as in the control
- number of CD28 negative CD8 T cells (CD28 negative T cells; [2]): evident reduction in the number of CD28 negative CD8 T cells as found for the LAG-3 antibody was not observed
- number of CD28 negative CD4 T cells (CD28 negative T cells; hLA212_H4/L2 10, 1, 0.1 μg/mL): hardly effective or rather increased the cell number
- number of CD57 positive CD8 T cells (CD57 positive T cells; [2]): evident reduction in the number of CD57 positive CD8 T cells as found for the LAG-3 antibody was not observed
- number of CD57 positive CD4 T cells (CD57 positive T cells; hLA212_H4/L2 10, 1, 0.1 μg/mL): such an effect was hardly observed
